Test results: paper PMC12360028
Results are given in words; binding and its absence hold for the method and conditions named. In cells and extracts the contact can be indirect. Some entries that bind do so weakly or less than the wild type.

Sequences of proteins named here, by UniProt entry; tags and fusion partners are left off. Residues count along the entry.
UniProt P05107, residues 23-769: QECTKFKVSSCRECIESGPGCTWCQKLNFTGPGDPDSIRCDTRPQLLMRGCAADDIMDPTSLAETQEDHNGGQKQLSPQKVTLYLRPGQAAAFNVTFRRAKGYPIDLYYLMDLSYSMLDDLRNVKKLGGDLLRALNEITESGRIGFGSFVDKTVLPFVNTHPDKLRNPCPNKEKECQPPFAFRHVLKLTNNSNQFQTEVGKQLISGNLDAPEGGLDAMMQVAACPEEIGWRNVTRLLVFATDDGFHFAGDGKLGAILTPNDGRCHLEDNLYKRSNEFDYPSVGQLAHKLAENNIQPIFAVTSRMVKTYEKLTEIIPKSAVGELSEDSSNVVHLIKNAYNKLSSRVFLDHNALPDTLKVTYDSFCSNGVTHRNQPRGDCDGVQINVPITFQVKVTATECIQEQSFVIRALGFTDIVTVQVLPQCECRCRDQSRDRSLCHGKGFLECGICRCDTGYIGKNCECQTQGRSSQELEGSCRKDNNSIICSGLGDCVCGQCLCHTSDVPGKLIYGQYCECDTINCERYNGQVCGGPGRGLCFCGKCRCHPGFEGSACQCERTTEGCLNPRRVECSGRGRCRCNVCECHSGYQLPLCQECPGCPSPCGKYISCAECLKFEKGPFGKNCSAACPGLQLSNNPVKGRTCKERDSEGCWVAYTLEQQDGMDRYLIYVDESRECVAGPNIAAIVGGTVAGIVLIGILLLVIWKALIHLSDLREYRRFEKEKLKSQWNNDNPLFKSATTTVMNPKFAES
UniProt Q03692, residues 19-680: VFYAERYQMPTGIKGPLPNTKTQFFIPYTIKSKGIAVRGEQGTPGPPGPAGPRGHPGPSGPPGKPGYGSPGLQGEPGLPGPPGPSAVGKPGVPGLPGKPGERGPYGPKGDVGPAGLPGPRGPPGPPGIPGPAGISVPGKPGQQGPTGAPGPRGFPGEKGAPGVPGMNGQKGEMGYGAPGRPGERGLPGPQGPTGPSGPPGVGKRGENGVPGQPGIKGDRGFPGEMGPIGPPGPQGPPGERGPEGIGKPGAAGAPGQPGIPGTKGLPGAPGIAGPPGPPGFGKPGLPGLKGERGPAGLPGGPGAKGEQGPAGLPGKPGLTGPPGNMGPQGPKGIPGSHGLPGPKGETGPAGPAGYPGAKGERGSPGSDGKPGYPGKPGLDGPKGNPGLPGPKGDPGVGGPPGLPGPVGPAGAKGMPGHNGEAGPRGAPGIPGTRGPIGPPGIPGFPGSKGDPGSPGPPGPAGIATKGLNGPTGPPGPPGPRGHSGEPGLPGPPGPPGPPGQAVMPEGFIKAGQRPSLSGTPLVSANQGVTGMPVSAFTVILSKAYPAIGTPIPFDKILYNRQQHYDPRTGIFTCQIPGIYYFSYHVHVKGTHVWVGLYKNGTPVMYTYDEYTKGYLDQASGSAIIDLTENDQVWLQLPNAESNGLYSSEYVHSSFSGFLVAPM

Target: Cluster of differentiation 18 (UniProt P05107)
Test: co-IP; Co-immunoprecipitation of COL10A1 and CD18 (Fig. 7I); cells, bait and conditions not told in the text shown (Supplementary Methods)

With “Collagen type X alpha 1 chain (from UniProt Q03692 19-680)” the binding was “binds”.
